From patent publication US4546076A, “Enzymatic process for the determination of beta-lactam antibiotics” (U C B Societe Anonyme, priority 1982, dated 1985)
At least one read-out could not be matched to a standard name with certainty.

Chains of the proteins cited; added tags and fusions are not shown. Residues count along the entry.
UniProt P39045, 50-515: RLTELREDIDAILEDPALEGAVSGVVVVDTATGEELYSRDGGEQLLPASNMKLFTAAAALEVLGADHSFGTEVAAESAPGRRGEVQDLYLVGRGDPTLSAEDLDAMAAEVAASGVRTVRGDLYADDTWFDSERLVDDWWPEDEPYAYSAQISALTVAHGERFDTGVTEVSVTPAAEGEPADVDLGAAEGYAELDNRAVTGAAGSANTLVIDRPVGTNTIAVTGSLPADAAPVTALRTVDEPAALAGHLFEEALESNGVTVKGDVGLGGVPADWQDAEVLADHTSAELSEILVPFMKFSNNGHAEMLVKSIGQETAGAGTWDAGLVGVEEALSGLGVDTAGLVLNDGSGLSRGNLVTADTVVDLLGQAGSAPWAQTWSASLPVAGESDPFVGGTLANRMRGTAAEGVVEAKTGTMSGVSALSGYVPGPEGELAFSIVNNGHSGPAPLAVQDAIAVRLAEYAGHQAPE

Molecular target: enzyme R 39 (Actinomadura sp. R39, UniProt P39045)
Test: Stability (break down) of the enzyme R 39-antibiotic complex
Format: biochemical, Actinomadura R 39
Conditions: at 37° C.

CC1(C)S[C@@H]2[C@H](NC(=O)Cc3ccccc3)C(=O)N2[C@H]1C(=O)O [penicillin G, benzylpenicillin]
half-life of the complex formed between enzyme R 39 and the antibiotic: about 70 hours
